Assay results

Data taken from PubChem BioAssay AID1053133, deposited by Broad Institute (2014).

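Plate-reader measure of the Venus reporter marking one vaccinia stage in infected cells (the cell line is not named here); read time unknown. The test concentration is not given here. Percent change in Venus reporter signal; lower (more negative) values mean stronger inhibition of that viral stage.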

Values are in %. The controls that fix the scale are not given here. Common to all entries: measured here: Venus reporter, other viral stage. This is a side read-out of the assay, for part of the compounds, not drawn at random.

{"compound": "O=C(c1ccc(F)cc1)N1CC(=O)N2[C@H](C1)[C@H](c1ccc(C#Cc3ccc(F)cc3)cc1)[C@@H]2CO", "activity change (Venus) (%)": "-46.12"}
{"compound": "O=C(Nc1cc(F)ccc1F)N1CCCCN2[C@H](CO)[C@@H](c3ccc(-c4ccccc4)cc3)[C@H]2C1", "activity change (Venus) (%)": "-48.05"}
{"compound": "N#C[C@@H]1[C@H](c2ccc(-c3ccccc3F)cc2)[C@@H](CO)N1C(=O)C1CCC1", "activity change (Venus) (%)": "-36.34"}
{"compound": "O=C(C[C@@H]1CC[C@H]2[C@@H](COC[C@H](O)CN2C(=O)Nc2ccc(Cl)c(Cl)c2)O1)NCc1ccc(F)cc1", "activity change (Venus) (%)": "-33.96"}
{"compound": "COc1ccc2c3c(n(C)c2c1)[C@@H](CO)N(C(=O)Nc1ccc(F)cc1)CC31CCN(C(=O)c2ccc3c(c2)OCO3)CC1", "activity change (Venus) (%)": "-34.25"}
{"compound": "Cc1noc(C)c1NC(=O)Nc1ccc2c(c1)CC(=O)N([C@@H](C)CO)C[C@@H](C)[C@@H](CN(C)C)O2", "activity change (Venus) (%)": "-29.4"}
{"compound": "O=C(C1CC1)N1CCCCN2[C@H](C1)[C@@H](c1ccc(C#CC3CCCC3)cc1)[C@@H]2CO", "activity change (Venus) (%)": "-44.48"}
{"compound": "C[C@@H]1CN([C@H](C)CO)S(=O)(=O)c2ccc(Br)cc2O[C@@H]1CN(C)Cc1ccccc1", "activity change (Venus) (%)": "-29.18"}
{"compound": "Cc1ccc(S(=O)(=O)N(C)C[C@@H]2Oc3ccc(NC(=O)NC4CCCCC4)cc3CC(=O)N([C@H](C)CO)C[C@@H]2C)cc1", "activity change (Venus) (%)": "-64.34"}
{"compound": "O=C(Nc1cc(F)ccc1F)N1CC(=O)N2[C@H](C1)[C@H](c1ccc(C#CC3CCCC3)cc1)[C@@H]2CO", "activity change (Venus) (%)": "-52.58"}
{"compound": "COc1cccc(C#Cc2ccc([C@@H]3[C@@H](CO)N(C(=O)C4CCC4)[C@H]3C#N)cc2)c1", "activity change (Venus) (%)": "-12.04"}
{"compound": "CC(C)CC#Cc1ccc2c(c1)O[C@H](CN(C)Cc1cncnc1)[C@@H](C)CN([C@H](C)CO)S2(=O)=O", "activity change (Venus) (%)": "-36.78"}
{"compound": "Cc1ccc(S(=O)(=O)Nc2ccc3c(c2)C(=O)N([C@@H](C)CO)C[C@@H](C)[C@H](CN(C)S(=O)(=O)c2cccs2)OCCCC[C@@H](C)O3)cc1", "activity change (Venus) (%)": "-37.13"}
{"compound": "O=C(c1cccc(F)c1)N1CC(=O)N2[C@H](C1)[C@H](c1ccc(/C=C/c3ccccc3)cc1)[C@@H]2CO", "activity change (Venus) (%)": "-87.8"}
{"compound": "C[C@H]1CN([C@@H](C)CO)S(=O)(=O)c2ccc(C#CC3CCCC3)cc2O[C@H]1CN(C)C(=O)C1CC1", "activity change (Venus) (%)": "-42.34"}
{"compound": "CC(C)CC#Cc1ccc([C@@H]2[C@@H](CO)N3C(=O)CN(C(=O)NC4CCCC4)C[C@H]23)cc1", "activity change (Venus) (%)": "-22.62"}
{"compound": "CCCN(C)C[C@H]1Oc2cc(-c3ccc(OC)cc3)ccc2S(=O)(=O)N([C@H](C)CO)C[C@H]1C", "activity change (Venus) (%)": "-32.72"}
{"compound": "C[C@@H]1CN([C@H](C)CO)S(=O)(=O)c2ccc(-c3ccc(F)cc3)cc2O[C@H]1CN(C)C(=O)Nc1ccccc1F", "activity change (Venus) (%)": "-34.95"}
{"compound": "COc1ccc(-c2ccc([C@H]3[C@H]4CN(C(=O)Cc5ccccc5)CCCCN4[C@H]3CO)cc2)cc1", "activity change (Venus) (%)": "-37.66"}
{"compound": "C[C@H]1CN([C@@H](C)CO)S(=O)(=O)c2ccc(C#Cc3cccc(F)c3)cc2O[C@H]1CN(C)C(=O)CN1CCOCC1", "activity change (Venus) (%)": "-26.41"}
{"compound": "O=C(NC1CCCC1)N1CC(=O)N2[C@H](C1)[C@@H](c1ccc(-c3cccc(F)c3)cc1)[C@@H]2CO", "activity change (Venus) (%)": "-21.18"}
{"compound": "O=C(Nc1ccc2c(c1)[C@H]1C[C@@H](CC(=O)N3CCc4ccccc4C3)O[C@@H](CO)[C@H]1O2)c1ccc2c(c1)OCO2", "activity change (Venus) (%)": "-60.82"}
{"compound": "COc1ccc(NC(=O)Nc2ccc3c(c2)C(=O)N([C@H](C)CO)C[C@H](C)[C@H](CN(C)Cc2ccccc2)OCCCC[C@H](C)O3)cc1", "activity change (Venus) (%)": "-83.94"}
{"compound": "Cc1ccc(S(=O)(=O)Nc2ccc3c(c2)C(=O)N([C@H](C)CO)C[C@H](C)[C@@H](CN(C)Cc2ccc4c(c2)OCO4)OCCCC[C@@H](C)O3)cc1", "activity change (Venus) (%)": "-24.41"}
{"compound": "CC(C)NC(=O)N1CCCCN2[C@H](CO)[C@@H](c3ccc(C#Cc4ccccc4)cc3)[C@H]2C1", "activity change (Venus) (%)": "-66.86"}
{"compound": "Cc1ccccc1-c1ccc2c(c1)O[C@H](CN(C)CC1CC1)[C@H](C)CN([C@H](C)CO)S2(=O)=O", "activity change (Venus) (%)": "-49.84"}
{"compound": "C[C@H]1CCCCO[C@@H](CN(C)Cc2ccc(C(F)(F)F)cc2)[C@@H](C)CN([C@@H](C)CO)C(=O)c2cc(NC(=O)c3ccccc3)ccc2O1", "activity change (Venus) (%)": "-26.29"}
{"compound": "O=C1[C@@H]2[C@@H](CC(COc3ccccc3)=C([C@H](O)c3ccccc3)[C@@H]2CO)C(=O)N1Cc1ccccc1", "activity change (Venus) (%)": "-25.53"}
{"compound": "C=CC[C@]1(C(=O)NCc2ccccc2)N=C(c2ccc(OCCCO)cc2)O[C@H]1c1ccccc1", "activity change (Venus) (%)": "-40.47"}
{"compound": "Cc1ccc(S(=O)(=O)N(C)C[C@H]2Oc3ccc(NC(=O)Nc4ccccc4)cc3CC(=O)N([C@H](C)CO)C[C@H]2C)cc1", "activity change (Venus) (%)": "-26.9"}
{"compound": "Cc1ccc(S(=O)(=O)N(C)C[C@H]2Oc3ccc(NS(=O)(=O)c4ccc(Cl)cc4)cc3C(=O)N([C@H](C)CO)C[C@H]2C)cc1", "activity change (Venus) (%)": "-21.05"}
{"compound": "Cc1ccc(S(=O)(=O)N2CC[C@H]3[C@@H](CO)N(C)c4ccc(-c5ccccc5F)cc4[C@H]32)cc1", "activity change (Venus) (%)": "-35.02"}
{"compound": "C[C@@H]1CN([C@H](C)CO)C(=O)c2cc(NC(=O)Nc3ccc(F)cc3)ccc2O[C@@H](C)CCCCO[C@H]1CN(C)Cc1ccc2c(c1)OCO2", "activity change (Venus) (%)": "-72.74"}
{"compound": "C[C@@H]1CN([C@@H](C)CO)C(=O)c2c(c3ccccc3n2C)-c2ccccc2CO[C@H]1CN(C)Cc1ccc(C(F)(F)F)cc1", "activity change (Venus) (%)": "-30.01"}
{"compound": "COc1ccc(-c2ccc3c(c2)[C@@H]2[C@@H](CCN2C(=O)NC(C)C)[C@H](CO)N3C)cc1", "activity change (Venus) (%)": "-33.1"}
{"compound": "CN1C(=O)c2cc(NC(=O)c3cccc(F)c3)ccc2OC[C@@H]2O[C@@H](CC(=O)NCc3ccccc3Cl)CC[C@H]21", "activity change (Venus) (%)": "-33.78"}

Some entries from above, unchanged:

| Compound | activity change (Venus) (%) |
|---|---|
| `C[C@@H]1CN([C@H](C)CO)C(=O)c2cc(NC(=O)Nc3ccc(F)cc3)ccc2O[C@@H](C)CCCCO[C@H]1CN(C)Cc1ccc2c(c1)OCO2` | -72.74 |
| `O=C(Nc1cc(F)ccc1F)N1CC(=O)N2[C@H](C1)[C@H](c1ccc(C#CC3CCCC3)cc1)[C@@H]2CO` | -52.58 |